# From article PMC10157491
# Construct, isoform or probe ends are uncertain for at least one entry. A negative result means that nothing was seen under these conditions. Tags and fusion partners may be left off the protein sequences shown.
# Target: T1, His6-NhaR (UniProt P0A9G2)
# T1 sequence (looked up, limits assumed): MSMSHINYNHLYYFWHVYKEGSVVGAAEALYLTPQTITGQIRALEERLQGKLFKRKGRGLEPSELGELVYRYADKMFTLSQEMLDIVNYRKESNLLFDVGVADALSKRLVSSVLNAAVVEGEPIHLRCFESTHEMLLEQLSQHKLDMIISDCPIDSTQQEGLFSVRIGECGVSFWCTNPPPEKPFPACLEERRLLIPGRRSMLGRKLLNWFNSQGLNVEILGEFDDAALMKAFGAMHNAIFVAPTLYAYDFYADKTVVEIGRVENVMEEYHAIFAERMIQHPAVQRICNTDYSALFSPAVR
# Assay: EMSA
# Conditions: up to 600 nM NhaR; NhaR EMSA: 20 mM Tris-HCl pH 8.0, 100 mM NaCl, 1 mM DTT, 10% glycerol, 125 ug/mL BSA, 10 ng DNA in 10 uL, 25 C 20 min; recombinant protein; protein details: N-terminal His6 (pET28a NdeI-SalI)
sequence,measurement,value
AATGACCTTTGGATAACCCTTTTTATGCTCCGTGAAAGCGATCACAAAGGGACTCTGCAATACTTGTTTGCG (double strand) [PbipA],binding result,no binding
